Reference: the supplement of paper PMC11732987, “Enantioselective OTUD7B fragment discovery through chemoproteomics screening and high-throughput optimisation” (Communications Chemistry, 2025)
The list shows a part of the results. The data scatter; read single values as rough.

Sequences of proteins named here, by UniProt entry; tags and fusion partners are left off. A change or cut given only in a name is not applied to a line headed by its entry. Residues count along the entry.
UniProt Q9BZF3: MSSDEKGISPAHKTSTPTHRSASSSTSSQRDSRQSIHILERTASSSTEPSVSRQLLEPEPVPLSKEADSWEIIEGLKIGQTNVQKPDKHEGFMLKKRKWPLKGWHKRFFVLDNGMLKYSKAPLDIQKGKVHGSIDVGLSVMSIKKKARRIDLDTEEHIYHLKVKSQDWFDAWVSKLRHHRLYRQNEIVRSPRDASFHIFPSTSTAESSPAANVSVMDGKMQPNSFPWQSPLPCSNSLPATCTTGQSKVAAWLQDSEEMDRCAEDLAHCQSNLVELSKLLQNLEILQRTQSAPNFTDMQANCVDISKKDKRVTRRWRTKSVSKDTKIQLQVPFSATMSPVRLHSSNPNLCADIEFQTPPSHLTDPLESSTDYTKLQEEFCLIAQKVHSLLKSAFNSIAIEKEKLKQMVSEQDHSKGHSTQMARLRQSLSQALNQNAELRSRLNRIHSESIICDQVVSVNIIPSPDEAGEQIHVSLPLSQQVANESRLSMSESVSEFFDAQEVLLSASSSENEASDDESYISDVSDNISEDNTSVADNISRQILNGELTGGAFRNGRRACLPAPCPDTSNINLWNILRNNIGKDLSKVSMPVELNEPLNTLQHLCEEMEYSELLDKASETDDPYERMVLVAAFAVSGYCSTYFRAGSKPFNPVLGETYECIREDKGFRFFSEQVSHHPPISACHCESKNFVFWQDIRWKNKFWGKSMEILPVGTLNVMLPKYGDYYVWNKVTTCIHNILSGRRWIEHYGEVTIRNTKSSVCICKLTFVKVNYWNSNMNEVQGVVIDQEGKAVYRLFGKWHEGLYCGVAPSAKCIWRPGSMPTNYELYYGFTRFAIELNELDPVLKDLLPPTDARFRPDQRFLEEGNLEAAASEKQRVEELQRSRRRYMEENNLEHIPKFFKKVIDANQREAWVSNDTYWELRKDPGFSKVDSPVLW
UniProt P49790, 556-586: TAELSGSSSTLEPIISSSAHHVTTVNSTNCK
UniProt O43482, whole entry, looked up: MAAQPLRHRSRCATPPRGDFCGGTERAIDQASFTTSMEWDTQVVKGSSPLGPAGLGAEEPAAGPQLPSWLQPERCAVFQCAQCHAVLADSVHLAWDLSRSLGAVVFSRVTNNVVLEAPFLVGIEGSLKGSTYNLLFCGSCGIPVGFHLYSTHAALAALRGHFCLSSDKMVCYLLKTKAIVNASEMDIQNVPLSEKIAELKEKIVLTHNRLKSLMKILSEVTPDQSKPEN
UniProt O96028: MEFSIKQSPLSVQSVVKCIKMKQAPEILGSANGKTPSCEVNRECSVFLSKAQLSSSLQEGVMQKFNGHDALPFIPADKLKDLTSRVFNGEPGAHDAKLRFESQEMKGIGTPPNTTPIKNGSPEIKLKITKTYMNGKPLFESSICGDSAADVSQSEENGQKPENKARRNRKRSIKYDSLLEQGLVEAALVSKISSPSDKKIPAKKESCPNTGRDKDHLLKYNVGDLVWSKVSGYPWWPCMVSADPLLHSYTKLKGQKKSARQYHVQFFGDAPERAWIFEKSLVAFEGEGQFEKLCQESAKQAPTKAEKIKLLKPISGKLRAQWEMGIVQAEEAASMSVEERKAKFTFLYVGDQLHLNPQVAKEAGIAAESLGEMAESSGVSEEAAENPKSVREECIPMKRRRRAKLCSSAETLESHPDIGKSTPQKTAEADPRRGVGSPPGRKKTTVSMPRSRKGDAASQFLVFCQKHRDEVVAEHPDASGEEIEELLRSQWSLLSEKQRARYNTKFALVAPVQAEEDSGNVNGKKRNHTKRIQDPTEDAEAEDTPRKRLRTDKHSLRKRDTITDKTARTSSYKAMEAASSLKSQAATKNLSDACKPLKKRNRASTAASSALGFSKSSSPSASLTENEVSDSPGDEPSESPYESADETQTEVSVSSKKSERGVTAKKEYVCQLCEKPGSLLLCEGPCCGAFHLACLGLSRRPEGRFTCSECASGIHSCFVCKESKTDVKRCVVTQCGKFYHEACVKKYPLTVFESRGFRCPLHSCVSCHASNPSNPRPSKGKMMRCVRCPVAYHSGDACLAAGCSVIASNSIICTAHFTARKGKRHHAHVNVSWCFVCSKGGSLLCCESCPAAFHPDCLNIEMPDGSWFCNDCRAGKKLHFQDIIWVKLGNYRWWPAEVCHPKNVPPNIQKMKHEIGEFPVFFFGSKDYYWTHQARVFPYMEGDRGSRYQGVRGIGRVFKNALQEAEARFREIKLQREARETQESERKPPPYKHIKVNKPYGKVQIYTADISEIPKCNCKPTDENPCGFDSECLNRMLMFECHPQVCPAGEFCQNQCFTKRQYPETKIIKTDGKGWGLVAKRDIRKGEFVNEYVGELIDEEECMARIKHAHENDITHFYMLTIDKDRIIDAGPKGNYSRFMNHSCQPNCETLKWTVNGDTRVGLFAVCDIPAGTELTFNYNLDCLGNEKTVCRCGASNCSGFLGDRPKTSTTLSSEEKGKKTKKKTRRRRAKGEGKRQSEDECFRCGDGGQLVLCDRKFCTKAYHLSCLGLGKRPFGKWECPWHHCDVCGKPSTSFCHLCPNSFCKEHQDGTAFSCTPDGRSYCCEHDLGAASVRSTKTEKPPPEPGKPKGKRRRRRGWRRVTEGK
UniProt Q02218: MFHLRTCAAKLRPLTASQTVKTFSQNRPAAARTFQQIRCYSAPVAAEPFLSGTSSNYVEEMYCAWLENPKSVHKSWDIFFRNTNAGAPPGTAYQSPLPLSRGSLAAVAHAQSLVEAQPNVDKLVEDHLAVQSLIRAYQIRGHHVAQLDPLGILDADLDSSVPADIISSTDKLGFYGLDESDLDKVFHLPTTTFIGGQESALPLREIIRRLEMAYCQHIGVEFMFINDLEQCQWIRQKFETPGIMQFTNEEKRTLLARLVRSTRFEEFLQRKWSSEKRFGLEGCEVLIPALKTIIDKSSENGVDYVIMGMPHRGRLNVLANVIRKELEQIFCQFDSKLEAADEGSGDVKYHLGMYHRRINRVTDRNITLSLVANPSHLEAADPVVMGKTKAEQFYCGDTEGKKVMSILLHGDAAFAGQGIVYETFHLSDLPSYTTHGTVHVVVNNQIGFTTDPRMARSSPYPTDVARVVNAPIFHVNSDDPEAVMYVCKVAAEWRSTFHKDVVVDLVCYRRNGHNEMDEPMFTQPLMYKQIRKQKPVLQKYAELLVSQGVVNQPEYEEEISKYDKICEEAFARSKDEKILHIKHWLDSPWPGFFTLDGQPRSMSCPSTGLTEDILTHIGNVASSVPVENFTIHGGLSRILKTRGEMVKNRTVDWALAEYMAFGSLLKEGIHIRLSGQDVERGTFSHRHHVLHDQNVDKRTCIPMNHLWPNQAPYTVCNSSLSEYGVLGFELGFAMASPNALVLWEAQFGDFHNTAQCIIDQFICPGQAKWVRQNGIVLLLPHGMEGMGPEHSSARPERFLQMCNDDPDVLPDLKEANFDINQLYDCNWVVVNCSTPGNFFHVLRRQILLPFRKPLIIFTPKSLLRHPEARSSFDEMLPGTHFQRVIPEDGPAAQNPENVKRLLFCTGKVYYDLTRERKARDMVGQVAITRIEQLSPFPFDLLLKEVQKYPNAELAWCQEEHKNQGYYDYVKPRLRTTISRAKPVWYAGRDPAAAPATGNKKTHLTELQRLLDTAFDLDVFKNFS
UniProt Q5SRE5: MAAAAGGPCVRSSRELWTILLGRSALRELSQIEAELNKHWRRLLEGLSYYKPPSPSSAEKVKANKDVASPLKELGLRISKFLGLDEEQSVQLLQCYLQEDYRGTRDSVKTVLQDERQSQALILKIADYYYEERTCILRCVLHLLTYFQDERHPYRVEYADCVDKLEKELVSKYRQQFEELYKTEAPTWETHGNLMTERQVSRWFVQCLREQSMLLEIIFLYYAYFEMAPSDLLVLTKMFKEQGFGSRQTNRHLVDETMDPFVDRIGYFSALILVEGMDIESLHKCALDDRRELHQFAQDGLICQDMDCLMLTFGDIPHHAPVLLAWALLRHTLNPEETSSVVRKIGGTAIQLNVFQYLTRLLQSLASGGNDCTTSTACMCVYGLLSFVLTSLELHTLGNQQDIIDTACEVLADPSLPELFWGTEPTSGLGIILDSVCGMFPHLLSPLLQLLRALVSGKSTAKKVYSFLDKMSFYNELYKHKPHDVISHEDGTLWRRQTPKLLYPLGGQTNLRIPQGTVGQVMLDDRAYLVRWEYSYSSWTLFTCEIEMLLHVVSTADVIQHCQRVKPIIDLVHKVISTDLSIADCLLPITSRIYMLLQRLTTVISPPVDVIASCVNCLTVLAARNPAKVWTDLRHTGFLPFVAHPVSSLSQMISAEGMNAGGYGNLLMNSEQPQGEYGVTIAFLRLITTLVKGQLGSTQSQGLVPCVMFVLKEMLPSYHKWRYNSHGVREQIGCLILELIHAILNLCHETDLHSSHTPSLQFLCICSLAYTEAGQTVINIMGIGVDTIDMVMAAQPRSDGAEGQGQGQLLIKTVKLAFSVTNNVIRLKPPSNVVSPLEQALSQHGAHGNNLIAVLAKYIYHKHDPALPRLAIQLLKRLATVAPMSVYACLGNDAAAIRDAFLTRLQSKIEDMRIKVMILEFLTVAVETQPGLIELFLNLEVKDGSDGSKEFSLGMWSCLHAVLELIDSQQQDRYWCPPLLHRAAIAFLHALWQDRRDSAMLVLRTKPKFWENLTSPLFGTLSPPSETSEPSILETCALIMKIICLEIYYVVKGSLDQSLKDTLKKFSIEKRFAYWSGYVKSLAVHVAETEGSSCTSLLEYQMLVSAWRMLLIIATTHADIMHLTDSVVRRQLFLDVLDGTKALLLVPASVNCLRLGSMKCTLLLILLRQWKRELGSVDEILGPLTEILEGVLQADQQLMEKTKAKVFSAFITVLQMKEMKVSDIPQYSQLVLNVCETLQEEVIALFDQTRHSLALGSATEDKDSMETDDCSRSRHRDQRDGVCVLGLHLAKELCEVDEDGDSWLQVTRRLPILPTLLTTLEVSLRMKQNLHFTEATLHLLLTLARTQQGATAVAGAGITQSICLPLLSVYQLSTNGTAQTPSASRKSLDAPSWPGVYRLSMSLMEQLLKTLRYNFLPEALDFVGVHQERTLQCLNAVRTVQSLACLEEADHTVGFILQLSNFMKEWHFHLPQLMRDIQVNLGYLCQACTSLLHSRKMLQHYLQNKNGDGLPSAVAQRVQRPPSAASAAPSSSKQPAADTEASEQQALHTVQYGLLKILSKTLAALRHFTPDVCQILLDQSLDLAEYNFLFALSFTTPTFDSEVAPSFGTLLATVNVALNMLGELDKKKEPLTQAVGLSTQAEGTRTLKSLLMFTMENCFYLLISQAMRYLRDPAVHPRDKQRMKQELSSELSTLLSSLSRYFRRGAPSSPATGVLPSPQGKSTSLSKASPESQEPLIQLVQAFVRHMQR
UniProt Q8N1F7: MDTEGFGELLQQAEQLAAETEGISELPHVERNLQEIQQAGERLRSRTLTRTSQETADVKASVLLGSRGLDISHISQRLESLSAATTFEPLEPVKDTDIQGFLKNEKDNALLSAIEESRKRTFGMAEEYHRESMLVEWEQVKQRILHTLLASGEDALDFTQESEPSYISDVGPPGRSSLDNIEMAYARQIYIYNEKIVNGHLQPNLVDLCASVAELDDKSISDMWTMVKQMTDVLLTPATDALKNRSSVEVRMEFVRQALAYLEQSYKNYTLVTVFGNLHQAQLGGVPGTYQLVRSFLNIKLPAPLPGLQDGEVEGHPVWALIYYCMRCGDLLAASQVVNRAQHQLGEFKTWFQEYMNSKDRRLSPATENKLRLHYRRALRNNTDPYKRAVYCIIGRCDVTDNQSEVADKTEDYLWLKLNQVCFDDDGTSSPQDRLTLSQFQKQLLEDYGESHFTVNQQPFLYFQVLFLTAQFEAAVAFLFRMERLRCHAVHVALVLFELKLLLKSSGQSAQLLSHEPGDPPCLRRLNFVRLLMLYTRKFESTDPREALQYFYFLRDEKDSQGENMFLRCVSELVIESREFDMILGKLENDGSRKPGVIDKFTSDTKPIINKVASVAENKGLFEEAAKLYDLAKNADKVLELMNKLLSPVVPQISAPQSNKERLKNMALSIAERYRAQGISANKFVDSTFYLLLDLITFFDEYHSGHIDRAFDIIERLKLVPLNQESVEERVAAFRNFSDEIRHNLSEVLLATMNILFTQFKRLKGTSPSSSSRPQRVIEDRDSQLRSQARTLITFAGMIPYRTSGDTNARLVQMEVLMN
UniProt Q08J23, 738-767: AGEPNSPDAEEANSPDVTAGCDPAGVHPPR
UniProt P24468: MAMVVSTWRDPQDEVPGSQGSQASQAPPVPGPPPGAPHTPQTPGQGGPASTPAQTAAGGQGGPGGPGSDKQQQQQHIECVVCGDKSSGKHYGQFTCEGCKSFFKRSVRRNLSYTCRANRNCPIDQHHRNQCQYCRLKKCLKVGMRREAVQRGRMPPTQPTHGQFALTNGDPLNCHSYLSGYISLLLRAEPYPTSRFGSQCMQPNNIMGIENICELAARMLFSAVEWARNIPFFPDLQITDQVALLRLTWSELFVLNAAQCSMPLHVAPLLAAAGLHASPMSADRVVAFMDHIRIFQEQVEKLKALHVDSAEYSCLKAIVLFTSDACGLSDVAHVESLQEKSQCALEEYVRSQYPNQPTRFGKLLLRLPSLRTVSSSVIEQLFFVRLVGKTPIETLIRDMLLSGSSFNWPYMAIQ

compound: ClCC(=O)N[C@@H]1CCCc2ccccc12; assay: log2 mean competition ratio of IA-DTB cysteine labelling (DMSO/compound) (log2 ratio); higher = stronger cysteine engagement by compound; details: 50 µM; treatment time: 4 h; cell line lysate: HEK293T
Experimental: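 IA-DTB competitive cysteine chemoproteomics in HEK293T RIPA lysate. Lysates were treated with compound 29 or 30 at 50 or 200 µM for 4 h, then IA-DTB (500 µM, 1 h), trypsin-digested, NeutrAvidin-enriched and analysed by diaPASEF. Competition ratio = intensity DMSO / intensity compound (n=4 treated, n=64 DMSO); binding: mean log2 CR ≥ 1 and p ≤ 0.05 plus QC filters. Target is the cysteine site.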

How did the “log2 mean competition ratio” value turn out when OGFOD1 C435 (UniProt Q8N543) was run?
The value was -0.145.

OGA C878 (UniProt O60502) was tested. Which “log2 mean competition ratio” value did it give?
Its value is 0.0597.

NUP160 C916 (UniProt Q12769) was tested. Which “log2 mean competition ratio” value did it give?
The value was -0.179.

With NT5DC1 C179 (UniProt Q5TFE4) as the target, how does the “log2 mean competition ratio” value read?
The value was -6.11e-05.

For OSBPL6 C301 (UniProt Q9BZF3), which “log2 mean competition ratio” value is on record?
Its value is -0.442.

How did the “log2 mean competition ratio” value turn out when NUP153 C585 (UniProt P49790) was run?
The value was -0.0235.

OIP5 C21 (UniProt O43482) was tested. Which “log2 mean competition ratio” value did it give?
The value was -0.192.

With NUF2 C377 (UniProt Q9BZD4) as the target, how does the “log2 mean competition ratio” value read?
Its value is -0.166.

For OSBPL9 C147, which “log2 mean competition ratio” value is on record?
Its value is 0.0307.

Which “log2 mean competition ratio” value does the source give for NSD2 C1315 (UniProt O96028) here?
The value was 0.19.

How did the “log2 mean competition ratio” value turn out when OGDH C283 (UniProt Q02218) was run?
Its value is -0.00431.

Which “log2 mean competition ratio” value does the source give for NUP188 C161 (UniProt Q5SRE5) here?
Its value is 0.00136.

For OGDH C331 (UniProt Q02218), which “log2 mean competition ratio” value is on record?
Its value is -0.335.

OAS3 C574 (UniProt Q9Y6K5) was tested. Which “log2 mean competition ratio” value did it give?
Its value is 0.0185.

For OGFR C443 (UniProt Q9NZT2), which “log2 mean competition ratio” value is on record?
The value was -0.258.

How did the “log2 mean competition ratio” value turn out when NUP93 C569 (UniProt Q8N1F7) was run?
The value was -0.0523.

Which “log2 mean competition ratio” value does the source give for NUP98 C1027 (UniProt P52948) here?
Its value is -0.136.

NSUN2 C758 (UniProt Q08J23) was tested. Which “log2 mean competition ratio” value did it give?
The value was -0.656.

Which “log2 mean competition ratio” value does the source give for NTMT1 C195 here?
Its value is 0.354.

How did the “log2 mean competition ratio” value turn out when NUP85 C230 (UniProt Q9BW27) was run?
The value was -0.0841.

For NR2F2 C121 (UniProt P24468), which “log2 mean competition ratio” value is on record?
The value was 0.305.

same assay, conditions: 200 µM; treatment time: 4 h; cell line lysate: HEK293T

How did the “log2 mean competition ratio” value turn out when OGFOD1 C435 (UniProt Q8N543) was run?
The value was -0.274.

How did the “log2 mean competition ratio” value turn out when OGA C878 (UniProt O60502) was run?
Its value is -0.0479.

NUP160 C916 (UniProt Q12769) was tested. Which “log2 mean competition ratio” value did it give?
Its value is -0.201.

Which “log2 mean competition ratio” value does the source give for NT5DC1 C179 (UniProt Q5TFE4) here?
Its value is -0.388.

Which “log2 mean competition ratio” value does the source give for NUP153 C585 (UniProt P49790) here?
The value was -0.0329.

OIP5 C21 (UniProt O43482) was tested. Which “log2 mean competition ratio” value did it give?
The value was 0.00643.

With NUF2 C377 (UniProt Q9BZD4) as the target, how does the “log2 mean competition ratio” value read?
The value was 0.281.

Which “log2 mean competition ratio” value does the source give for OSBPL9 C147 here?
Its value is 0.149.

NSD2 C1315 (UniProt O96028) was tested. Which “log2 mean competition ratio” value did it give?
Its value is 0.254.

With OGDH C283 (UniProt Q02218) as the target, how does the “log2 mean competition ratio” value read?
The value was -0.108.

Which “log2 mean competition ratio” value does the source give for NUP188 C161 (UniProt Q5SRE5) here?
The value was -0.14.

How did the “log2 mean competition ratio” value turn out when OGDH C331 (UniProt Q02218) was run?
The value was -0.356.

With OAS3 C574 (UniProt Q9Y6K5) as the target, how does the “log2 mean competition ratio” value read?
Its value is 0.0707.

How did the “log2 mean competition ratio” value turn out when OGFR C443 (UniProt Q9NZT2) was run?
Its value is 0.0245.

For NUP93 C569 (UniProt Q8N1F7), which “log2 mean competition ratio” value is on record?
The value was -0.0923.

How did the “log2 mean competition ratio” value turn out when NUP98 C1027 (UniProt P52948) was run?
Its value is 0.07.

NSUN2 C758 (UniProt Q08J23) was tested. Which “log2 mean competition ratio” value did it give?
Its value is -0.109.

How did the “log2 mean competition ratio” value turn out when NTMT1 C195 was run?
The value was 0.414.

NUP85 C230 (UniProt Q9BW27) was tested. Which “log2 mean competition ratio” value did it give?
Its value is 0.296.

With NR2F2 C121 (UniProt P24468) as the target, how does the “log2 mean competition ratio” value read?
The value was -0.249.
